Source: PMC8394137

The chains behind the UniProt entries cited, without tags or fusion partners. Where a name states a change or a piece, a line headed by the entry shows the natural chain unless it says otherwise.
UniProt O43736: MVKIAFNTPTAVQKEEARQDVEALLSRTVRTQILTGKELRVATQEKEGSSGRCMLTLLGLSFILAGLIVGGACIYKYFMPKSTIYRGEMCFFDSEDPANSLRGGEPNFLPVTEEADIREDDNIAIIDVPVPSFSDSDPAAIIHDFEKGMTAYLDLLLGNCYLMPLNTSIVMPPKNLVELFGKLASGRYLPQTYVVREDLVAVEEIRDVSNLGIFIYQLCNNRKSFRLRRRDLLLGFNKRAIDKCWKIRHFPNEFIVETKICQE
UniProt Q13635: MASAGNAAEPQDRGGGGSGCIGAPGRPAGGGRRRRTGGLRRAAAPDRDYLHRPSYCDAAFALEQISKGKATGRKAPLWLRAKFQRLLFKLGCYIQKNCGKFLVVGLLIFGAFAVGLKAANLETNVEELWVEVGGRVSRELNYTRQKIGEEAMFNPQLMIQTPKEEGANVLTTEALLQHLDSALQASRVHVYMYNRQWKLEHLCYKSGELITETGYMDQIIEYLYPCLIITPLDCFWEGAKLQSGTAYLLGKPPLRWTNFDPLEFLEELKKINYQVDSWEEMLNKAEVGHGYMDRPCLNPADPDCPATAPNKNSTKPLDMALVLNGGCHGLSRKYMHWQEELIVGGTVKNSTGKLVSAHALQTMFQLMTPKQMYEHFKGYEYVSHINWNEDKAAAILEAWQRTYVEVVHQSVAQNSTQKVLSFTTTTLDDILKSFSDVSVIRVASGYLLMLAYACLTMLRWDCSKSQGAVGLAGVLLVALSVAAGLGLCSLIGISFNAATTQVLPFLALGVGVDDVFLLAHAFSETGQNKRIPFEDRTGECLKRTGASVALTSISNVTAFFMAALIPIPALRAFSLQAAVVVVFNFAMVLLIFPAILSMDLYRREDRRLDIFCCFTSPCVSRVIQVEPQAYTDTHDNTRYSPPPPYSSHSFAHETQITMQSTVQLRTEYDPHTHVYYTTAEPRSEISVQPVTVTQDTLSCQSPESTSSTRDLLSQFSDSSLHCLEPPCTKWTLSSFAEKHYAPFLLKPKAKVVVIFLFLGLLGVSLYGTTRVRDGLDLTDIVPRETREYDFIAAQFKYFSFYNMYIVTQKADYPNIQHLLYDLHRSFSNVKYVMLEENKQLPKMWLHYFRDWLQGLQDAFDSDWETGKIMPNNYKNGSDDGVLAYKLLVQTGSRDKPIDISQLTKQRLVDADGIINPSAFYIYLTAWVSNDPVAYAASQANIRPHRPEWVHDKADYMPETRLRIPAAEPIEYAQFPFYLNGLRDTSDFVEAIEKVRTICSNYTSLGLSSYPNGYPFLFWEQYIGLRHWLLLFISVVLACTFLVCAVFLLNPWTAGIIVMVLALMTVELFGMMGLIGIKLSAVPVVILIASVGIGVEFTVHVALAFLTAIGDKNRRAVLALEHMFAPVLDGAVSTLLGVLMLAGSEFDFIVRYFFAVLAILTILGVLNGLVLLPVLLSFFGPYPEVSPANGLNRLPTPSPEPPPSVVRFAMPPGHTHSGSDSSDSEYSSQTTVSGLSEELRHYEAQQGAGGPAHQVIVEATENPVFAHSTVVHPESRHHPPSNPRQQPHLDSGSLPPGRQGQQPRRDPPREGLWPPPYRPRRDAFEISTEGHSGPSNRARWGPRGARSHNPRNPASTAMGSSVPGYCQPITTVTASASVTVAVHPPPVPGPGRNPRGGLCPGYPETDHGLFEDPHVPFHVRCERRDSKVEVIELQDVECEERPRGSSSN

Target: myc-tagged ITM2A (integral membrane protein 2A) (UniProt O43736)
Assay: co-IP; HEK293 co-transfected with two plasmids, lysed 24 h later in 50 mM Tris HCl pH 7.5, 150 mM NaCl, 1% NP-40, 0.05% sodium deoxycholate, 1 mM EDTA; anti-tag antibody (anti-HA or anti-myc) and Dynabeads Protein G at 4 °C; Western blot for the other tag

| binding | Substance |
| --- | --- |
| binds | PTCH1ΔML (eGFP-tagged) (from UniProt Q13635) (receptor) |
| binds | PTCH1ΔMLΔCTD (eGFP-tagged) (from UniProt Q13635) (receptor) |

Results are given in words; binding and its absence hold for the method and conditions named. In cells and extracts the contact can be indirect. Binding calls can cover weak binding; strength is not graded here.
